Reference: PMC10185810
No constants are given. Whether binding was seen depends on the method and setting. Binding seen in cells or lysates may run through a third protein. Some binding calls cover weakened binding; strength is not graded here. Where a sequence is shown, tags or fusion partners need not be part of it.

Amino acid sequences for entries named in this document (tags omitted).
UniProt P46937: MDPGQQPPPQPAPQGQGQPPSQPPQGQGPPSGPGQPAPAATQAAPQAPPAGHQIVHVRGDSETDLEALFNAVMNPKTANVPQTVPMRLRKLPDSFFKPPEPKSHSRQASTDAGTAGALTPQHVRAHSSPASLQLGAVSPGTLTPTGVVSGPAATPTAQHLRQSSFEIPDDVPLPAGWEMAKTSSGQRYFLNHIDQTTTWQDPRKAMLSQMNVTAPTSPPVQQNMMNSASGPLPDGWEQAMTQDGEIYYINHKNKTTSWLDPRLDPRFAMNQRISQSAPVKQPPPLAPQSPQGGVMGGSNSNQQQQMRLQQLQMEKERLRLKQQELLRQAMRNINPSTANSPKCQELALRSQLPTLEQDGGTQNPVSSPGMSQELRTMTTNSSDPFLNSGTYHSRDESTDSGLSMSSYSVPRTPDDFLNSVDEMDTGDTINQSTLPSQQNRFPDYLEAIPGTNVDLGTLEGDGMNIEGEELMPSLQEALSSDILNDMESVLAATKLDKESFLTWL

Molecular target: T1, Flag-tagged full-length CNN2 (H2-calponin) (UniProt Q99439)
T1 sequence: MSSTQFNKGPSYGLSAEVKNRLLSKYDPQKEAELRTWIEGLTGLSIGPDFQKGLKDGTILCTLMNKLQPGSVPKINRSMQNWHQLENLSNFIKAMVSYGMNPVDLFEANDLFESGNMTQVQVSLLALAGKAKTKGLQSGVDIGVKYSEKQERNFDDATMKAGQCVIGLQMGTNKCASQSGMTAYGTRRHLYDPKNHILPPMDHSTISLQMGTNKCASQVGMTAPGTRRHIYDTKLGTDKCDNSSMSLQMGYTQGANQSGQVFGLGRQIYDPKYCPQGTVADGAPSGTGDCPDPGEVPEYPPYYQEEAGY
Assay: co-IP; total proteins of RKO cells overexpressing Flag-tagged full-length CNN2, immunoprecipitated with an anti-Flag antibody, Western blot

Yes kinase-associated protein 1 (YAP1) (from UniProt P46937 1-504)
binding: binds
